This is one part of the list. Residues, ends and D or L forms follow the SMILES beside them. *: point of attachment. Cbz = O=C(OCc1ccccc1)*
Columns and labels:
Assay in all cases: log2 fold change, soluble protein after heating vs DMSO (PISA); higher = thermal stabilisation; K562 cells, 10 uM, 30 min; active = over 0.2 and 3.5 SD of the protein, either way, in both replicates (recomputed)
IRAK-1-4 Inhibitor I = compound: C1COCCN1CCN2C3=CC=CC=C3N=C2NC(=O)C4=CC(=CC=C4)[N+](=O)[O-] [IRAK-1-4 Inhibitor I]
Outline: (§1)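 Soluble protein was quantified by TMTpro 16plex LC-MS/MS after channel sums were equalised. It was obtained as the supernatant after 21,000xg for 90 min from pooled aliquots of K562 cells (2×10^6 cells/mL, 10 μM compound, 30 min) heated for 3 min across 48°C-58°C and extracted in PBS with 0.5% NP-40 at 4°C. Thermal stability values are relative to control samples and come from duplicates. They are given as log2 fold changes.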

The chains behind the UniProt entries cited, without tags or fusion partners. Where a name states a change or a piece, a line headed by the entry shows the natural chain unless it says otherwise.
UniProt P37287: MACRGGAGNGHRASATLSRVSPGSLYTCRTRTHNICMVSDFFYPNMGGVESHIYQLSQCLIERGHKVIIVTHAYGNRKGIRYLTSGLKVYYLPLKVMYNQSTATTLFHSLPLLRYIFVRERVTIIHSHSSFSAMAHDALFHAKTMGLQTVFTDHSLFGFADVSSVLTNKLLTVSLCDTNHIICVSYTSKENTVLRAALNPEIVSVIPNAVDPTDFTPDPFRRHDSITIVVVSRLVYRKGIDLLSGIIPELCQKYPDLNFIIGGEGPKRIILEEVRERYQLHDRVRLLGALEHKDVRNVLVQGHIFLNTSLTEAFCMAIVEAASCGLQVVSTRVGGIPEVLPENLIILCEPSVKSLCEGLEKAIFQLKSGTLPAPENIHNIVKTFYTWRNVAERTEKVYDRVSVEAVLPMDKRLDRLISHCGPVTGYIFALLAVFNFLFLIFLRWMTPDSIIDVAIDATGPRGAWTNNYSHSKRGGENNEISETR
UniProt Q9NWS0, whole entry, looked up: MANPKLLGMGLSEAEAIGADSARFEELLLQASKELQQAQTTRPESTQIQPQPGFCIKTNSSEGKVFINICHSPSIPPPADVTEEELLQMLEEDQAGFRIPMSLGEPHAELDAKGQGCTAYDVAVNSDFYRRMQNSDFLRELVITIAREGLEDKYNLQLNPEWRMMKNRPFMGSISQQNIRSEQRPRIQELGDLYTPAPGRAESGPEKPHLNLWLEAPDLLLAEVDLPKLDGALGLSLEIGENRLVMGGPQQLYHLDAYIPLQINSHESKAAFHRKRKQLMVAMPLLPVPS
UniProt Q15149: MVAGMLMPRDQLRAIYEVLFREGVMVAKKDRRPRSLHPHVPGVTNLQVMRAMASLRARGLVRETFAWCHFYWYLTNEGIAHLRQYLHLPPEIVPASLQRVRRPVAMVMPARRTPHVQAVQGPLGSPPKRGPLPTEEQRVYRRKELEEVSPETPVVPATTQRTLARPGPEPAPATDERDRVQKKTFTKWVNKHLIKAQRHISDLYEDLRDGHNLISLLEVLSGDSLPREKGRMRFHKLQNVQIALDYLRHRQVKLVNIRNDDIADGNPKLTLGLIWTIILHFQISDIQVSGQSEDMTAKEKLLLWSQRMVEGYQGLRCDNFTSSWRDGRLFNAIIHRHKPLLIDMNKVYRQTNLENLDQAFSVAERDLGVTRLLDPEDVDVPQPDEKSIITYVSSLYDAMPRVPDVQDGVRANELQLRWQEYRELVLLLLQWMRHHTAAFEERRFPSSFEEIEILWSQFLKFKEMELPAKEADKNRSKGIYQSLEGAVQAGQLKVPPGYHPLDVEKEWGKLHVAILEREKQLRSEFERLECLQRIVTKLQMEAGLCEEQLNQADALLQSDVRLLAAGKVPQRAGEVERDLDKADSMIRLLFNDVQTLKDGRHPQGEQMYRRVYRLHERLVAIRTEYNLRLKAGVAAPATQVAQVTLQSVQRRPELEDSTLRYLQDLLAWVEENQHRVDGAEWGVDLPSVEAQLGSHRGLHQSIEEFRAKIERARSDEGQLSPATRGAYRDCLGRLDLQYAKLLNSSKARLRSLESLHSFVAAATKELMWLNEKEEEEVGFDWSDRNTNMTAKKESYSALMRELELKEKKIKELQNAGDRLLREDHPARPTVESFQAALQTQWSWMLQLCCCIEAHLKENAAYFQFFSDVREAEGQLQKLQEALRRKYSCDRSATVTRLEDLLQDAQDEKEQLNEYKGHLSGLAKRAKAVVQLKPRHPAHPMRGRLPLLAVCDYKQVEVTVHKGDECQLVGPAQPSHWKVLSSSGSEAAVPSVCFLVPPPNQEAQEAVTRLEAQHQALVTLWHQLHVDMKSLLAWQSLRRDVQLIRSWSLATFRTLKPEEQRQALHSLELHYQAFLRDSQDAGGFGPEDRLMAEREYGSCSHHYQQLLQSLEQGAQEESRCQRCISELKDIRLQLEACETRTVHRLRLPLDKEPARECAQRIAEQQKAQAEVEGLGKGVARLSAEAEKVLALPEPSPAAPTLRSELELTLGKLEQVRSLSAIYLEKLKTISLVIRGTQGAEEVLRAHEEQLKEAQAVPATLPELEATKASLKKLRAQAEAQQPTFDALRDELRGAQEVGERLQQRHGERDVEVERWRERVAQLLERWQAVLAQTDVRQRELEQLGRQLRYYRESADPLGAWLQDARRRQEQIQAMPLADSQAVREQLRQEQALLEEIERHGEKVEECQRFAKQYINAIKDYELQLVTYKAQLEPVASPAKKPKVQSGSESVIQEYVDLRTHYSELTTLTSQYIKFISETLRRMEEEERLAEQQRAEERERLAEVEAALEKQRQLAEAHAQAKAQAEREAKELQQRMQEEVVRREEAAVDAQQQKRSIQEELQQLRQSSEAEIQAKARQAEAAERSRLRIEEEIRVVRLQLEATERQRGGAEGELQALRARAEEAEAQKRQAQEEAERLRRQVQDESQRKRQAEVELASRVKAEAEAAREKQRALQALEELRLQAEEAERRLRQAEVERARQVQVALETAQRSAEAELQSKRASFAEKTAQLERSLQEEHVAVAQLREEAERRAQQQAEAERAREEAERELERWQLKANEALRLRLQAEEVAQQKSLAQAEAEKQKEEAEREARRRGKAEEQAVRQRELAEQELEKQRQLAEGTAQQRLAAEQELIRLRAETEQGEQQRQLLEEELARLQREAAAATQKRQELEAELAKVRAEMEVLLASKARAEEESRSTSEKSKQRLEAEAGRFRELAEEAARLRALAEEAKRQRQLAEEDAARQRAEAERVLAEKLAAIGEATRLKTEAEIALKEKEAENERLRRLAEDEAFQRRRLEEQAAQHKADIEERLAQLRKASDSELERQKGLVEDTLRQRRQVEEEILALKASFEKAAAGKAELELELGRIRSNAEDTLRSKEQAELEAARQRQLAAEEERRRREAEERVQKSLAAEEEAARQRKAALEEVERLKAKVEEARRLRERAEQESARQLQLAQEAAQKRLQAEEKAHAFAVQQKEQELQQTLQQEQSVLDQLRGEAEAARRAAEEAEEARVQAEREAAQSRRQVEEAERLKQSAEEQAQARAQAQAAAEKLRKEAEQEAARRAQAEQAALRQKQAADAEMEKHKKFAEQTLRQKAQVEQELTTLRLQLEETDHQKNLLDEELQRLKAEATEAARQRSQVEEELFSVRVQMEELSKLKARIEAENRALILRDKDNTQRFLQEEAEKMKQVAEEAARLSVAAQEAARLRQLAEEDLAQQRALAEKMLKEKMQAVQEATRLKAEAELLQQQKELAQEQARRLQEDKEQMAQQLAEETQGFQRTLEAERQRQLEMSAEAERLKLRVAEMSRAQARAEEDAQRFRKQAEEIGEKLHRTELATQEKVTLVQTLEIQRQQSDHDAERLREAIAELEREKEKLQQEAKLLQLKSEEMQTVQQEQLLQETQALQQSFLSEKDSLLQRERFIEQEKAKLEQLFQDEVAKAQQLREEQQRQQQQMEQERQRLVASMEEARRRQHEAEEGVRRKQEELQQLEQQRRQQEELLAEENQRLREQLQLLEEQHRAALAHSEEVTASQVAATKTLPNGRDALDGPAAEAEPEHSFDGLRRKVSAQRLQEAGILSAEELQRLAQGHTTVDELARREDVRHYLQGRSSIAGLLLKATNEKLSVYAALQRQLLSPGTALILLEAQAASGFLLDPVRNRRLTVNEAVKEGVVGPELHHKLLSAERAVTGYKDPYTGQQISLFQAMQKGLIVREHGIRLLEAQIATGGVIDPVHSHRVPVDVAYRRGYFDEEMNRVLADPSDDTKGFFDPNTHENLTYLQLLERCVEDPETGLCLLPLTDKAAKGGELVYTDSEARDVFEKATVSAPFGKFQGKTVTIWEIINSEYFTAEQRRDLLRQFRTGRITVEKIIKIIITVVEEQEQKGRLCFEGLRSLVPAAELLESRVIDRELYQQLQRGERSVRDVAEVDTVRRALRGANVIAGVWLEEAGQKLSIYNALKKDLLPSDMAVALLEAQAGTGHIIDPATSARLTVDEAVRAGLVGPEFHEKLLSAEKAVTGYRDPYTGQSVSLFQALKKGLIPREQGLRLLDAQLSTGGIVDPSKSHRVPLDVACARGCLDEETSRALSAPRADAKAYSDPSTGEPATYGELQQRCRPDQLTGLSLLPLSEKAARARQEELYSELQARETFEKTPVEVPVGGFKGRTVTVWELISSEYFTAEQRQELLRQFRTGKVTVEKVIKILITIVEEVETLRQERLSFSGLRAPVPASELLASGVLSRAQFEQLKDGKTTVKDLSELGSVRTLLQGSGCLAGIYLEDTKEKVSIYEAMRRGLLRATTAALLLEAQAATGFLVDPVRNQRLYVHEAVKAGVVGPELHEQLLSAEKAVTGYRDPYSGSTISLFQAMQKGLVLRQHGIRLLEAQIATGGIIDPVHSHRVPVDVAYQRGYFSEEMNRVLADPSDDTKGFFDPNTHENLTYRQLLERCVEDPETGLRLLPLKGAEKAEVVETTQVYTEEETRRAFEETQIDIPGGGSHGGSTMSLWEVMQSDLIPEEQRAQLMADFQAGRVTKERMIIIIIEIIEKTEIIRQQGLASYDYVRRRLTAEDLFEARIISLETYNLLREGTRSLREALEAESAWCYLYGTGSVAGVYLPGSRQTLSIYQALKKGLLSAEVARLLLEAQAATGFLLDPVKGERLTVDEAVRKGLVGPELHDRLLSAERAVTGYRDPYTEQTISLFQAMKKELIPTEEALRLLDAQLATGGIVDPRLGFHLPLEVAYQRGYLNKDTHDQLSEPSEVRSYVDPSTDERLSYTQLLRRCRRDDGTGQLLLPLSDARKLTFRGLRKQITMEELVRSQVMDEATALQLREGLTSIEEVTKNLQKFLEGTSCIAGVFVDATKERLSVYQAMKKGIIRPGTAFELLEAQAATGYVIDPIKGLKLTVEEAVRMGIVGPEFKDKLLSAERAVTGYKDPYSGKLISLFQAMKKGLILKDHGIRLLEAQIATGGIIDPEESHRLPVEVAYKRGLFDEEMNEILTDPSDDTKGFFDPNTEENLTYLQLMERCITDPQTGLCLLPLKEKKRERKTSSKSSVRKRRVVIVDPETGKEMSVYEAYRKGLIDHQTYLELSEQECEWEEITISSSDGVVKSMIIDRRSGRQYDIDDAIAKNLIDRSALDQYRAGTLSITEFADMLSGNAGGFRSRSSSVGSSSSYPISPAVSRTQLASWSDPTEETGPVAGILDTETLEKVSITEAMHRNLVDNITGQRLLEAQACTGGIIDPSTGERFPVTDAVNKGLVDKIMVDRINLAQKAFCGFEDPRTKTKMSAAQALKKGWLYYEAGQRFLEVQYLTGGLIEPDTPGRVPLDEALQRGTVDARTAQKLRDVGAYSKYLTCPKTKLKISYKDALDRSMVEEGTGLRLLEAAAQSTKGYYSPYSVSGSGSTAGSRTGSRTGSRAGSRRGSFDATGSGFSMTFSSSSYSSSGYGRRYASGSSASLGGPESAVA
UniProt O00264: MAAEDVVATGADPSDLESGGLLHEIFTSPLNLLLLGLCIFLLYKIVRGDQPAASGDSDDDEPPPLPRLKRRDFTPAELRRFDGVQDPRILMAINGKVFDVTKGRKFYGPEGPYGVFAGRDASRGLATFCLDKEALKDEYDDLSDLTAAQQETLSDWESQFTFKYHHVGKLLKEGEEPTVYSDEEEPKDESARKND
UniProt Q9UHV9, whole entry, looked up: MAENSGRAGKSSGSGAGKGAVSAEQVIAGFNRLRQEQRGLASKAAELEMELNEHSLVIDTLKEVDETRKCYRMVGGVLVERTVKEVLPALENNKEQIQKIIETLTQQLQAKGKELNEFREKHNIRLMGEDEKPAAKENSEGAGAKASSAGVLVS
UniProt P48739: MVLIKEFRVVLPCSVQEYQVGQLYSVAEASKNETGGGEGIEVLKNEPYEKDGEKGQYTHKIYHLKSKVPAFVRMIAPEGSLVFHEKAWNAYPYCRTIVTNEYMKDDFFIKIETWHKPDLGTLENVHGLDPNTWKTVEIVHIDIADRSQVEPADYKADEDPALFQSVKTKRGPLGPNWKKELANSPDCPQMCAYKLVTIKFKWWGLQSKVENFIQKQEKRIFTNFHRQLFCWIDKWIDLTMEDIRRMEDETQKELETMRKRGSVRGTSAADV
UniProt Q9NQP4, whole entry, looked up: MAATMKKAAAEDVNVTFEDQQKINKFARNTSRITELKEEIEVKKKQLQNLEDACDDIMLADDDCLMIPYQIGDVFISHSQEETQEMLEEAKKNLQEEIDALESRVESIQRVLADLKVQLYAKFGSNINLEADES
UniProt Q96HS1, whole entry, looked up: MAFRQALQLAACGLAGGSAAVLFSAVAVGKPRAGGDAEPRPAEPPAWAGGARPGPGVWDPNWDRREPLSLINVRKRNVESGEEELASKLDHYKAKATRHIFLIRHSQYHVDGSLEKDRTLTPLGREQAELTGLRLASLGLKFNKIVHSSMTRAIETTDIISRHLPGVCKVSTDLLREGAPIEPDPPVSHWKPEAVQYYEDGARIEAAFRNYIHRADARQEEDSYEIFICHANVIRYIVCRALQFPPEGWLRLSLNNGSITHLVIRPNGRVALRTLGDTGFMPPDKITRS

ibrutinib = compound: C=CC(=O)N1CCC[C@@H](n2nc(-c3ccc(Oc4ccccc4)cc3)c3c(N)ncnc32)C1 [ibrutinib]
Outline: as §1

[1] = compound: CC(=O)c1cnc2ccc(-c3cc(Cl)c(O)c(Cl)c3)nc2c1N[C@H]1CC[C@H](CN(C)C)CC1
Outline: as §1

ralimetinib = compound: CC(C)(C)Cn1c(N)nc2ccc(-c3[nH]c(C(C)(C)C)nc3-c3ccc(F)cc3)nc21 [ralimetinib]
Outline: as §1

[2] = compound: CC(C)(O)CC(=O)NCCn1ccc2ncnc(Nc3ccc(Oc4cccc(C(F)(F)F)c4)c(Cl)c3)c21
Outline: as §1

[3] = compound: CC(C)C1=C2N=C(C=C(N2N=C1)NCC3=CC=CC=C3)NCCCCCCN
Outline: as §1

[4] = compound: CC(C)C[C@@H](C=O)NC(=O)[C@H](CC(C)C)NC(=O)[C@H](CC(C)C)NC(=O)OCc1ccccc1
Outline: as §1

pinometostat = compound: CC(C)N(C[C@H]1O[C@@H](n2cnc3c(N)ncnc32)[C@H](O)[C@@H]1O)[C@H]1C[C@@H](CCc2nc3cc(C(C)(C)C)ccc3[nH]2)C1 [pinometostat]
Outline: as §1

[5] = compound: CC1=C(C(CC(=O)N1)C2=CC=C(C=C2)C(F)(F)F)C(=O)NC3=C(C=C4C(=C3)C=NN4)F
Outline: as §1

[6] = compound: CC1=C(C2=C(C=C1)C(=O)C3=CC=CC=C3N2CCCN)C
Outline: as §1

[7] = compound: CC1=C(C=C(C=C1)NC(=O)C2=CC(=CC=C2)C(C)(C)C#N)NC3=CC4=C(C=C3)N=CN(C4=O)C
Outline: as §1

[8] = compound: CC1=C(C=C(C=C1)NC(=O)C2=CC(=CC=C2)N(C)C)NC(=O)C3=CC=C(C=C3)O
Outline: as §1

[9] = compound: CC1=CC=C(C=C1)SC2=C3C=C(SC3=CN=C2)C(=O)N
Outline: as §1

[10] = compound: CC1=NC(=CC=C1)C2=C(N=C(N2)C(C)(C)C)C3=CC4=NC=CN=C4C=C3
Outline: as §1

Nexturastat A = compound: CCCCN(Cc1ccc(C(=O)NO)cc1)C(=O)Nc1ccccc1 [Nexturastat A]
Outline: as §1

vemurafenib = compound: CCCS(=O)(=O)Nc1ccc(F)c(C(=O)c2c[nH]c3ncc(-c4ccc(Cl)cc4)cc23)c1F [vemurafenib]
Outline: as §1

[11] = compound: CCCS(=O)(=O)Nc1ccc(F)c(C(=O)c2c[nH]c3ncc(Cl)cc23)c1F
Outline: as §1

[12] = compound: CCCc1cc(C)[nH]c(=O)c1CNC(=O)c1cc(-c2ccnc(N3CCN(C)CC3)c2)cc2c1cnn2C(C)C
Outline: as §1

givinostat = compound: CCN(CC)Cc1ccc2cc(COC(=O)Nc3ccc(C(=O)NO)cc3)ccc2c1 [givinostat]
Outline: as §1

barasertib = compound: CCN(CCCOc1ccc2c(Nc3cc(CC(=O)Nc4cccc(F)c4)[nH]n3)ncnc2c1)CCOP(=O)(O)O [barasertib]
Outline: as §1

Measured: log2 fold change

PIGA (UniProt P37287)
inactive: IRAK-1-4 Inhibitor I 0.031 | ibrutinib -0.009 | [1] 0.007 | ralimetinib -0.058 | [2] -0.105 | [3] 0.049 | [4] -0.023 | pinometostat -0.003 | [5] 0.001 | [6] 0.031 | [7] -0.055 | [8] 0.039 | [9] -0.005 | [10] -0.033 | Nexturastat A -0.07 | vemurafenib -0.055 | [11] 0.034 | [12] -0.038 | givinostat -0.047 | barasertib 0.017

PIH1D1 (UniProt Q9NWS0)
inactive: IRAK-1-4 Inhibitor I -0.036 | ibrutinib -0.039 | [1] -0.013 | ralimetinib 0.048 | [2] -0.061 | [3] -0.005 | [4] 0.061 | pinometostat 0.011 | [5] -0.053 | [6] -0.015 | [7] 0.021 | [8] -0.002 | [9] 0.001 | [10] 0.159 | Nexturastat A 0.042 | vemurafenib 0.044 | [11] 0.075 | [12] 0.14 | givinostat 0.018 | barasertib -0.006

PFKFB4 (UniProt Q16877)
inactive: IRAK-1-4 Inhibitor I -0.003 | ibrutinib 0.023 | [1] -0.036 | ralimetinib -0.013 | [2] 0.006 | [3] 0.02 | [4] 0.032 | pinometostat 0.072 | [5] 0.003 | [6] 0.032 | [7] -0.02 | [8] 0.049 | [9] -0.02 | [10] 0.011 | Nexturastat A 0.021 | vemurafenib -0.018 | [11] 0.014 | [12] -0.006 | givinostat 0.047 | barasertib 0.05

PFDN5 (UniProt Q99471)
inactive: IRAK-1-4 Inhibitor I -0.112 | ibrutinib 0.004 | [1] -0.015 | ralimetinib -0.077 | [2] -0.042 | [3] 0.075 | [4] -0.233 | pinometostat -0.196 | [5] 0.024 | [6] 0.159 | [7] 0.07 | [8] -0.206 | [9] 0.025 | [10] 0.092 | Nexturastat A -0.019 | vemurafenib 0.213 | [11] 0 | [12] 0.031 | givinostat 0.037 | barasertib -0.003

PIGU (UniProt Q9H490)
inactive: IRAK-1-4 Inhibitor I 0.035 | ibrutinib 0.009 | [1] -0.049 | ralimetinib 0.023 | [2] -0.146 | [3] -0.112 | [4] -0.025 | pinometostat 0.067 | [5] -0.03 | [6] -0.019 | [7] 0.077 | [8] -0.001 | [9] -0.049 | [10] -0.048 | Nexturastat A -0.02 | vemurafenib 0.117 | [11] 0.064 | [12] 0.018 | givinostat 0.015 | barasertib 0.044

PLEC (UniProt Q15149)
inactive: IRAK-1-4 Inhibitor I -0.026 | ibrutinib 0.009 | [1] -0.034 | ralimetinib 0.162 | [2] 0.003 | [3] -0.089 | [4] 0.085 | pinometostat 0.11 | [5] 0.004 | [6] -0.082 | [7] -0.006 | [8] -0.015 | [9] -0.018 | [10] -0.087 | Nexturastat A 0.173 | vemurafenib -0.059 | [11] -0.032 | [12] 0.013 | givinostat 0.077 | barasertib -0.067

PGRMC1 (UniProt O00264)
inactive: IRAK-1-4 Inhibitor I 0.041 | ibrutinib 0.019 | [1] -0.012 | ralimetinib -0.006 | [2] 0.034 | [3] 0.04 | [4] -0.067 | pinometostat -0.048 | [5] 0.006 | [6] -0.015 | [7] -0.017 | [8] -0.018 | [9] -0.011 | [10] 0.023 | Nexturastat A -0.024 | vemurafenib 0.025 | [11] 0.011 | [12] 0.028 | givinostat -0.001 | barasertib 0.027

PFDN2 (UniProt Q9UHV9)
inactive: IRAK-1-4 Inhibitor I 0.045 | ibrutinib -0.001 | [1] -0.008 | ralimetinib -0.045 | [2] -0.016 | [3] 0.046 | [4] -0.008 | pinometostat -0.046 | [5] -0.002 | [6] 0.029 | [7] 0.015 | [8] 0.018 | [9] 0.003 | [10] 0.026 | Nexturastat A -0.129 | vemurafenib -0.011 | [11] -0.009 | [12] -0.083 | givinostat -0.027 | barasertib -0.003

PITPNB isoform 3 (UniProt P48739)
inactive: IRAK-1-4 Inhibitor I 0.03 | ibrutinib -0.012 | [1] 0.094 | ralimetinib -0.044 | [2] -0.014 | [3] 0.036 | [4] 0.013 | pinometostat -0.024 | [5] -0.056 | [6] 0.045 | [7] 0 | [8] -0.011 | [9] -0.026 | [10] 0.012 | Nexturastat A -0.103 | vemurafenib 0.007 | [11] 0.009 | [12] -0.012 | givinostat -0.04 | barasertib -0.011

PHF3 (UniProt Q92576)
inactive: IRAK-1-4 Inhibitor I -0.049 | ibrutinib -0.031 | [1] 0.187 | ralimetinib 0.049 | [2] 0.061 | [3] 0.11 | [4] 0.122 | pinometostat 0.175 | [5] -0.07 | [6] 0.28 | [7] -0.005 | [8] 0.045 | [9] -0.078 | [10] -0.103 | Nexturastat A 0.134 | vemurafenib -0.058 | [11] -0.115 | [12] 0.061 | givinostat 0.031 | barasertib -0.059

Quoted from the results shown (4 entries):
PLEC (UniProt Q15149)
inactive: IRAK-1-4 Inhibitor I -0.026 | ibrutinib 0.009 | [1] -0.034 | ralimetinib 0.162 | [2] 0.003 | [3] -0.089 | [4] 0.085 | pinometostat 0.11 | [5] 0.004 | [6] -0.082 | [7] -0.006 | [8] -0.015 | [9] -0.018 | [10] -0.087 | Nexturastat A 0.173 | vemurafenib -0.059 | [11] -0.032 | [12] 0.013 | givinostat 0.077 | barasertib -0.067

PGRMC1 (UniProt O00264)
inactive: IRAK-1-4 Inhibitor I 0.041 | ibrutinib 0.019 | [1] -0.012 | ralimetinib -0.006 | [2] 0.034 | [3] 0.04 | [4] -0.067 | pinometostat -0.048 | [5] 0.006 | [6] -0.015 | [7] -0.017 | [8] -0.018 | [9] -0.011 | [10] 0.023 | Nexturastat A -0.024 | vemurafenib 0.025 | [11] 0.011 | [12] 0.028 | givinostat -0.001 | barasertib 0.027

PFDN2 (UniProt Q9UHV9)
inactive: IRAK-1-4 Inhibitor I 0.045 | ibrutinib -0.001 | [1] -0.008 | ralimetinib -0.045 | [2] -0.016 | [3] 0.046 | [4] -0.008 | pinometostat -0.046 | [5] -0.002 | [6] 0.029 | [7] 0.015 | [8] 0.018 | [9] 0.003 | [10] 0.026 | Nexturastat A -0.129 | vemurafenib -0.011 | [11] -0.009 | [12] -0.083 | givinostat -0.027 | barasertib -0.003

PITPNB isoform 3 (UniProt P48739)
inactive: IRAK-1-4 Inhibitor I 0.03 | ibrutinib -0.012 | [1] 0.094 | ralimetinib -0.044 | [2] -0.014 | [3] 0.036 | [4] 0.013 | pinometostat -0.024 | [5] -0.056 | [6] 0.045 | [7] 0 | [8] -0.011 | [9] -0.026 | [10] 0.012 | Nexturastat A -0.103 | vemurafenib 0.007 | [11] 0.009 | [12] -0.012 | givinostat -0.04 | barasertib -0.011

(continued)

PFDN4 (UniProt Q9NQP4)
inactive: IRAK-1-4 Inhibitor I 0.086 | ibrutinib -0.024 | [1] -0.067 | ralimetinib 0.19 | [2] 0.027 | [3] 0.067 | [4] 0.138 | pinometostat -0.049 | [5] 0.064 | [6] 0.006 | [7] -0.024 | [8] 0.087 | [9] -0.033 | [10] 0.046 | Nexturastat A 0.083 | vemurafenib -0.03 | [11] -0.006 | [12] 0.116 | givinostat -0.02 | barasertib 0.092

PHB2 (UniProt Q99623)
inactive: IRAK-1-4 Inhibitor I -0.007 | ibrutinib -0.028 | [1] 0.008 | ralimetinib -0.038 | [2] -0.019 | [3] -0.002 | [4] -0.022 | pinometostat -0.061 | [5] 0.006 | [6] -0.005 | [7] 0.004 | [8] 0.02 | [9] -0.012 | [10] 0.036 | Nexturastat A -0.108 | vemurafenib -0.024 | [11] -0.017 | [12] -0.023 | givinostat -0.013 | barasertib -0.007

PIN1 (UniProt Q13526)
inactive: IRAK-1-4 Inhibitor I 0.039 | ibrutinib 0.033 | [1] -0.016 | ralimetinib -0.077 | [2] 0.032 | [3] 0.096 | [4] 0.005 | pinometostat -0.027 | [5] -0.005 | [6] 0.001 | [7] -0.004 | [8] -0.01 | [9] 0.019 | [10] -0.006 | Nexturastat A 0.026 | vemurafenib 0.039 | [11] 0.04 | [12] -0.011 | givinostat 0.048 | barasertib 0.05

PFDN6 (UniProt O15212)
inactive: IRAK-1-4 Inhibitor I 0.004 | ibrutinib 0.026 | [1] 0.016 | ralimetinib -0.099 | [2] -0.047 | [3] 0.065 | [4] 0.028 | pinometostat -0.112 | [5] 0.001 | [6] 0.044 | [7] 0.036 | [8] 0.012 | [9] 0.043 | [10] 0.038 | Nexturastat A -0.051 | vemurafenib 0.089 | [11] -0.001 | [12] 0.021 | givinostat -0.014 | barasertib -0.012

PHACTR2 isoform 4 (UniProt O75167)
inactive: IRAK-1-4 Inhibitor I 0.017 | ibrutinib 0.014 | [1] -0.008 | ralimetinib -0.042 | [2] 0.017 | [3] -0.15 | [4] -0.035 | pinometostat -0.068 | [5] 0.191 | [6] -0.019 | [7] -0.092 | [8] -0.001 | [9] 0.036 | [10] -0.031 | Nexturastat A -0.073 | vemurafenib 0.028 | [11] -0.085 | [12] -0.023 | givinostat 0.058 | barasertib 0.07

PGAM5 (UniProt Q96HS1)
inactive: IRAK-1-4 Inhibitor I -0.089 | ibrutinib 0.038 | [1] 0.158 | ralimetinib 0.119 | [2] 0.071 | [3] 0.058 | [4] 0.125 | pinometostat 0.239 | [5] 0.024 | [6] 0.116 | [7] 0.001 | [8] 0.001 | [9] -0.009 | [10] -0.05 | Nexturastat A 0.15 | vemurafenib 0.001 | [11] -0.029 | [12] 0.082 | givinostat 0.032 | barasertib -0.027

Source: the supplement of paper PMC10849652
